This passage reports binding results from doi:10.64898/2025.12.09.692982.

Amino acid sequences for entries named in this document (tags omitted). A change or cut given only in a name is not applied to a line headed by its entry.
UniProt O00311: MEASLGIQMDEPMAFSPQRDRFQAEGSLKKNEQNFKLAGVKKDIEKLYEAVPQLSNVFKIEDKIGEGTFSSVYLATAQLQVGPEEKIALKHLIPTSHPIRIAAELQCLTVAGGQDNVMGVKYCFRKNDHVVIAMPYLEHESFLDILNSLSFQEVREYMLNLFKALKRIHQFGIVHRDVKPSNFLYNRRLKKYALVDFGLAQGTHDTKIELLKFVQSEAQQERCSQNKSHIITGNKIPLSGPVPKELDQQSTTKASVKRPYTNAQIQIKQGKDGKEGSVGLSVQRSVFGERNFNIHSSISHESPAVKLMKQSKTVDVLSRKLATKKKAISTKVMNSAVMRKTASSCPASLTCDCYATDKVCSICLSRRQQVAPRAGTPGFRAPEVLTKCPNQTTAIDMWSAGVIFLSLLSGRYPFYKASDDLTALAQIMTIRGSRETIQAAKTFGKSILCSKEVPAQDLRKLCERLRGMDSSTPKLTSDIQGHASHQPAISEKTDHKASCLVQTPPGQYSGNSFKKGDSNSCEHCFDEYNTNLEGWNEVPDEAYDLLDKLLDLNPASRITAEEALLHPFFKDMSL
UniProt P49336: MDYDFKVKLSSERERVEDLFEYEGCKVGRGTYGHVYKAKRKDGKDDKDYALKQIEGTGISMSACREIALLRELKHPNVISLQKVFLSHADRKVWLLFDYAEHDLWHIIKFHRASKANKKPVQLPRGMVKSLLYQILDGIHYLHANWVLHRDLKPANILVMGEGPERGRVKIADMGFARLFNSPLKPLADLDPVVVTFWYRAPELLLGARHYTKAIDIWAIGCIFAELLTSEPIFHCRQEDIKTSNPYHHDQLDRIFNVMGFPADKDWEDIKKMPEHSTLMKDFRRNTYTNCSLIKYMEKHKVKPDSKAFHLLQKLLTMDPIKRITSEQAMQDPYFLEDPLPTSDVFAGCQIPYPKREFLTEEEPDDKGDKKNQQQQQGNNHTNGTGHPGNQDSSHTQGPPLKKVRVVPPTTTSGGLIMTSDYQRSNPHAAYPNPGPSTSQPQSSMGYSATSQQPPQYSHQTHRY

These are yes or no findings as the source states them, for the method shown. Binding seen in cells or lysates may run through a third protein. Some entries that bind do so weakly or less than the wild type. Where a sequence is shown, tags or fusion partners need not be part of it.

The experiment has as its target T1, MCM3 protein fused to an ALFA-tag (UniProt P25205).
T1 sequence: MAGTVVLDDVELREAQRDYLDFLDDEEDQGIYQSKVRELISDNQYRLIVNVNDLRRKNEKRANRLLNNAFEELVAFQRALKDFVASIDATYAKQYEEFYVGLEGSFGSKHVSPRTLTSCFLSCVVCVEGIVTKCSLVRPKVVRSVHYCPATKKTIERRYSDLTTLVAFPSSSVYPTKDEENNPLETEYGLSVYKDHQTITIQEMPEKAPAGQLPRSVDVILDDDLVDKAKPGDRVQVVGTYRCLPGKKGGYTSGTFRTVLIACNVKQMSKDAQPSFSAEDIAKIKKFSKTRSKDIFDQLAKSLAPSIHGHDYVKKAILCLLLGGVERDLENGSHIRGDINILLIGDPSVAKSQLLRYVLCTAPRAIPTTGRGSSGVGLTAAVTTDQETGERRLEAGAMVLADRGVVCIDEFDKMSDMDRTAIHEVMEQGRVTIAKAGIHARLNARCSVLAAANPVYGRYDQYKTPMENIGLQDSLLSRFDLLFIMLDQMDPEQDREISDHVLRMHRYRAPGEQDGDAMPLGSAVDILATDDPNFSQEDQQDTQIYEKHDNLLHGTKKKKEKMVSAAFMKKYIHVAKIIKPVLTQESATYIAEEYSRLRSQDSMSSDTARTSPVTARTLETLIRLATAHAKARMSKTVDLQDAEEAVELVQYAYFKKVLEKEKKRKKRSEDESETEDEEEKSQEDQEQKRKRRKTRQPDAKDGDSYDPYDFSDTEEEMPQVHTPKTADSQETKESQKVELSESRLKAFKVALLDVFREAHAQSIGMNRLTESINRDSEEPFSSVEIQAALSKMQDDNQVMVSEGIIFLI
Put plainly: pull-down.

Turning to CDC7 (from UniProt O00311 1-574), the binding result is reported as “binds”.

Regarding “CDK8/CCNC kinase (from UniProt P49336 1-464; P24863 1-283) (complex)”, the binding entry was “binds”.
